For one substance, binding results are on record in doi:10.1101/2020.05.09.085852 (bioRxiv, 2020).

Results are given in words; binding and its absence hold for the method and conditions named. A result given as binding can be weak or reduced; the word gives no strength. Where a sequence is shown, tags or fusion partners need not be part of it.

Experiment [1] addresses T1, YukC (BACTH fusion) (B. subtilis 168) (UniProt P71070).
T1 sequence: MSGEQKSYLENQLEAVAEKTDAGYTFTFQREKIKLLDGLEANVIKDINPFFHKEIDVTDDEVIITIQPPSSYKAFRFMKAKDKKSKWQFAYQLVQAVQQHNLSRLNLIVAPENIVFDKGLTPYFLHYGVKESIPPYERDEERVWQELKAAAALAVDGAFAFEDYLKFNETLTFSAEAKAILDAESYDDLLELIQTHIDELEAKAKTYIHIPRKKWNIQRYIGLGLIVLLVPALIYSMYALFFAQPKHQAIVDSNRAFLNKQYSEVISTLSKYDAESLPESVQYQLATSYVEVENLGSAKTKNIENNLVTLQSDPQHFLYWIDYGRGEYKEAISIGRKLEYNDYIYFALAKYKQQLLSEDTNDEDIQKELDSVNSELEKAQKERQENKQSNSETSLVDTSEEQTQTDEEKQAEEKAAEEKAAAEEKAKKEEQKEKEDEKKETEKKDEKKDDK
Nature of the experiment: two-hybrid.

The target of experiment [2] is T2, YueB (BACTH fusion) (B. subtilis 168) (UniProt O32101).
T2 sequence: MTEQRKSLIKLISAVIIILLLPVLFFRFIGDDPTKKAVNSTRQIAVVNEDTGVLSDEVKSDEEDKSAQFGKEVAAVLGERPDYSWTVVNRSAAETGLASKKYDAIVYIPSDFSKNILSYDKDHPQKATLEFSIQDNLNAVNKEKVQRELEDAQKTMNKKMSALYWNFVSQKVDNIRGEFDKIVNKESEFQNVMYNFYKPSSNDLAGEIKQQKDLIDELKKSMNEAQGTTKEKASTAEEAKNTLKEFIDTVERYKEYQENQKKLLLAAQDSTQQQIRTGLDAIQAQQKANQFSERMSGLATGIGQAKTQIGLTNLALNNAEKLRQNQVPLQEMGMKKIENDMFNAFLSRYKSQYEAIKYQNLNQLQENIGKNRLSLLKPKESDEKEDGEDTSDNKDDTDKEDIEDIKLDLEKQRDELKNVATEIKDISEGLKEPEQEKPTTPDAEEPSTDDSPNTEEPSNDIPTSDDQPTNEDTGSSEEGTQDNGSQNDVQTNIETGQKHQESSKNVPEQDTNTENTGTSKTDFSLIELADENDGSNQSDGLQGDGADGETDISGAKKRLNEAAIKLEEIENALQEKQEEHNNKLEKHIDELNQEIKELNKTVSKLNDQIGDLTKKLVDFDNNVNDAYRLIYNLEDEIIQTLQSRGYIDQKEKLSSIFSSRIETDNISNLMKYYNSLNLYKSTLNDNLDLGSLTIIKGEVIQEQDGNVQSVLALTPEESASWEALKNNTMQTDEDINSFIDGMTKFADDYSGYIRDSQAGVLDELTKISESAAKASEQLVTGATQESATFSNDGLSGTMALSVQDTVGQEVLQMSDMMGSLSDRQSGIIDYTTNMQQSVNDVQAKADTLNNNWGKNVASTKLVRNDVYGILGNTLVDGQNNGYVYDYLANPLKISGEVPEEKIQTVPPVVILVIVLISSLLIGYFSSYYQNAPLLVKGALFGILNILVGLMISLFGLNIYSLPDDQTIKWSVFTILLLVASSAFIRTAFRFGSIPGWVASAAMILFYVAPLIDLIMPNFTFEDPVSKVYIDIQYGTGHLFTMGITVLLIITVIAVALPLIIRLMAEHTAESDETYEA
The experiment can be described thus: two-hybrid.

On to “YueBΔ31-817 (BACTH fusion) (from UniProt O32101)”, for which the binding entry in experiment [1] and in experiment [2] was “binds” in each case.
